Results published in patent publication US20110143960A1, “3D-MODELS FOR HIGH-THROUGHPUT SCREENING DRUG DISCOVERY AND DEVELOPMENT” (priority 2009, published 2011).

System: MDA-MB-231 spheroids
Test: Modified Boyden chamber cell invasion assay of cells dissociated from spheroids
Format: cell-based
Details: control modulators, 72 h treatment, 24 h invasion, FIG. 6
Procedure: Secondary assay development: As a secondary assay to confirm hits from the primary assay, the Boyden chamber cell invasion method was used and modified to measure the invasive potential of cells isolated from spheroids after treatment with control modulators of EMT. Spheroids were treated as in the primary assay. Following treatment, each sample group was disassociated into single cell suspensions and seeded into invasion chambers followed by a 24 h incubation period. VimPro-Fluc-MDA-MB-231 spheroids were treated with control EMT modulators as described using 15 spheroids per sample group. The spheroids for each sample group were pooled into 1.5 ml, micro tubes and collected by centrifugation at 10,000 rpm for 10 min at room temperature.
Each sample group was then treated with 200 μL of spheroid dissociation solution (0.25% trypsin-EDTA) and incubated at 37° C. for 30 min. […]
FBS in RPMI-1640 medium, 150 μL) was added to each bottom chamber and the plate was incubated (37° C., 5% CO2) for 24 h. […] Invading cells were quantified using five random fields per filter insert in triplicate at 20× magnification using a fluorescent microscope equipped with metamorph image analysis and quantification software (Molecular Devices; Downingtown, Pa.). […]

Row | SMILES | inhibition of invasive potential vs untreated spheroids
1 | CNC(=O)c1ccccc1Sc1ccc2c(/C=C/c3ccccn3)n[nH]c2c1 [Axitinib] | about 90%
2 | CO[C@@H]1[C@H](N(C)C(=O)c2ccccc2)C[C@H]2O[C@]1(C)n1c3ccccc3c3c4c(c5c6ccccc6n2c5c31)C(=O)NC4 [PKC412] | about 90%
